In PubChem BioAssay AID1794845 (National Center for Advancing Translational Sciences (NCATS), 2023):
Hit rate of the full screen: of about 6,900 compounds, fewer than 10 were called active. The call rests on the fitted dose curve; in most records, active means well fitted curve in the direction sought with a large enough effect; inconclusive means small, poorly fitted or top-dose-only effect, or another doubt; inactive means no such curve, though single readings can be large or run the other way. This is one part of the list.

By UniProt entry, the sequences of proteins in these tests, tags left out. Where a name states a change or a piece, a line headed by the entry shows the natural chain unless it says otherwise.
UniProt C7C422: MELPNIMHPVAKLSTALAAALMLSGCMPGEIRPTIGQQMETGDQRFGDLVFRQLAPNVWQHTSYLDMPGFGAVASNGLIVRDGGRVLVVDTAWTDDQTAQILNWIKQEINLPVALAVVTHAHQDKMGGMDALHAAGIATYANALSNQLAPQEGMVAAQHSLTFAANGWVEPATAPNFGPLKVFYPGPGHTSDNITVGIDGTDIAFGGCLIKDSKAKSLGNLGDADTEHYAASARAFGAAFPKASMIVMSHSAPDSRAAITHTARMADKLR

What follows are compounds tested against Metallo-beta-lactamase type 2 (Klebsiella pneumoniae) (UniProt C7C422) (assay: qHTS to identify inhibitors of the New Delhi Metallo-beta-lactamase (NDM): primary screen against the NCATS Gemini Collection). Details: NDM-1 enzyme, meropenem hydrolysis, absorbance 300 nm; at 38.4 µM (top of the series) unless noted.
Method in brief: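 Meropenem hydrolysis (50 uM final) by 2 nM NDM-1 read as 300 nm absorbance after 30 min, following >30 min compound–enzyme preincubation in HEPES pH 7.0 with 1 uM ZnSO4 and 0.01% Tween20.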
Further: % of control where 0% means no effect.

Activity % (negative = inhibition), inactive:
CCn1cc(S(=O)(=O)NCC2Cn3cccc3CN2Cc2ccccc2)cn1 (stereo not drawn) 11.1%, Cn1cc(-c2ccsc2)c2nc(CN3CCNC(=O)C3)cn2c1=O 12.2% [at 57.5 µM], CN1C[C@H](C(=O)Nc2ccncn2)C[C@H]1c1cccc(C(F)(F)F)c1 11% [at 57.5 µM], Cc1cncc(C(=O)N2CC(CO)C3(CCNCC3)C2)c1 (stereo not drawn) 14.2%, O=C(c1ccncc1)N1CCC2(CC1)CN(c1ncccn1)CC2CO (stereo not drawn) 1.06%, OC[C@@H]1CNC[C@H]1C1CCN(Cc2ccncc2F)CC1 32.4%, O=C(CCCc1cccs1)N1CCCC(O)(CN2CCCC2)C1 (stereo not drawn) 3.9%, Cc1ccc(-c2cc(-c3cccnc3)nc3c(C)noc23)c(C)c1 15.2% [at 57.5 µM], CCc1noc([C@@H]2CC(F)(F)CN2C(=O)c2ccncc2F)n1 1.07%, CC(=O)NCCC(=O)N1CCCCC1C(=O)Nc1ccc(-n2nc(C)cc2C)cc1 (stereo not drawn) 2.68%, Cc1nonc1Cc1nc(C2CCOCC2)nn1CC1COCCO1 (stereo not drawn) -2.77%, C[S+](=O)([O-])N1Cc2ccccc2CC2(CCN(CC3CCCCC3)CC2)C1 -0.243%, c1cncc(CN2CCOC[C@H]2c2ncc(-c3cccnc3)[nH]2)c1 7.77% [at 57.5 µM], Cc1cc(N2CCC(NCc3cc(C)nn3C)CC2)nc(-c2ccccc2)n1 7.57%, CC(C)C(=O)N[C@H]1[C@H](O)[C@H](O)C[C@@H]1c1ccc(C(F)(F)F)nc1 8.19% [at 57.5 µM], COCC(=O)N(C[C@H]1O[C@@H](CC(=O)NC2CC2)[C@H](O)[C@@H]1O)C[C@H]1O[C@@H](CC(=O)NC2CC2)[C@H](O)[C@@H]1O 0.867%, CCN1CCCC2(CCN(C(=O)CCc3n[nH]c(C)c3C)C2)C1=O (stereo not drawn) -2.33%, COc1ccc(NC(=O)CCc2ccnc(N3CCCC3)c2)c(OC)c1 38.1%, O=C(NC[C@H]1Cn2ccnc2CO1)C1CCCC1 0.0357% [at 77.1 µM], O=C([C@@H]1C[C@@H]2C=C[C@H]1C2)N1CCc2c(nc(-c3cccnc3)[nH]c2=O)C1 3.7%, Cc1noc(C)c1-c1nccc2c(=O)cc(-c3ccccn3)oc12 51.3% [at 57.5 µM], COc1ccc(S(N)(=O)=O)cc1C(=O)N1CCC2(CN(C)C(=O)O2)C1 (stereo not drawn) 9.66%, O=C(C1CCCNC1)N1CCCn2cc(-c3ccccc3F)nc21 (stereo not drawn) 6.66%, CCNC(=O)N[C@H]1[C@H](O)[C@H](O)C[C@@H]1c1cncnc1 4.61% [at 77.1 µM], CCCOc1nccnc1NC1CCN(C(=O)c2cccnc2)CC1 4.4%, CC(C)c1nc(N2CCOCC2)ncc1C(=O)O 0.227%, N#Cc1ccc(S(=O)(=O)N2CCc3n[nH]c(=O)n3CC2)cc1 43.8%, CS(=O)(=O)N1CC(F)(F)C[C@H]1c1nc(C2CC2)no1 8.43%, CCCS(=O)(=O)N1CCc2nn(CC3CC3)c(=O)n2CC1 -1.69%, Cn1cc(S(=O)(=O)NC2CC(c3cc(N4CCC(O)C4)ncn3)C2)cn1 (stereo not drawn) 0.667%, CN1CCOc2c(C(=O)NCc3cnn(C)c3)cc(-c3ccc([S+](C)(=O)[O-])cc3)cc21 11.8% [at 57.5 µM], Cc1ccc(CN2CCCc3nc(C)nc(-c4ccc(O)cc4)c3C2)cc1 0.551%, Cc1ncoc1C(=O)N1CCC2(CC1)CC(N(Cc1ccccc1)C1CC1)CCO2 (stereo not drawn) -3.52%, O=C(NCCCc1ccccc1F)[C@H]1CCC[C@@H](O)C1 -0.311%, CCCN(CC1CC1)C(=O)[C@@H]1COCC(=O)N1Cc1ccccc1 11.1%, CC1(CNCc2ccccc2)COc2ccc(C(=O)NCc3cccs3)cc2N1 (stereo not drawn) 9.32% [at 57.5 µM], COCc1nnc2n1CCC(NC(=O)Cc1c[nH]c3ccccc13)CC2 (stereo not drawn) 0.638%, N#Cc1cccnc1-c1cccc(C(=O)NCCN[S+](=O)([O-])c2cccc(C(F)(F)F)c2)c1 -0.199%, O=C(N[C@@H]1CCN(C(=O)c2n[nH]c3ccccc23)C[C@H]1O)c1cccnc1 2.74%, O=C(C[C@@H]1CCNC[C@@H]1Cc1cc(CSc2ccccc2)on1)N1CCN(c2ccccc2)CC1 2.61%, CO[C@H]1C(=O)N(C2CCN(C(=O)c3ccnn3C)CC2)[C@H]1c1ccncc1 2%, CC(C)(O)CCc1ccc(CN2CCN([C@H]3CCCC[C@@H]3O)CC2)cc1 -12.4%, Nc1nc2c(c(N3CC[C@@H](O)C3)n1)CCN(C(=O)[C@H]1CCCO1)CC2 18.3%, COc1cccc(Nc2cccc(CN3CCCC(C)(NC(C)=O)C3)c2)c1 (stereo not drawn) 15.3% [at 57.5 µM], O[C@@H]1C[C@@H](c2nc(-c3cnccn3)no2)N(Cc2cccs2)C1 3.47% [at 57.5 µM], Cc1ccccc1CNC(=O)c1cc2cn(C(C)C)cc2s1 -1.18%, O=c1c2nc(NCCOc3ccccc3)ccc2ncn1Cc1ccccc1 5.47% [at 57.5 µM], CCC[C@@H]1CN(C(=O)c2ccccc2-c2ccccc2F)C[C@H]1NC(C)=O -2.99%, Cc1cc(C)nc(N2C[C@H]3OC(=O)N(CCc4cccc(Cl)c4)[C@H]3C2)n1 4.92%, NC(=O)[C@H](Cc1ccc(O)cc1)NC(=O)[C@@]1(O)C[C@@H](O)[C@H](O)[C@@H](NC(=O)c2ccc(F)c(Cl)c2)C1 8.28%, CCN(CC)C(=O)[C@@H]1CCC[C@@H](NCc2cccc(OC)c2)CN(C)C(=O)C1 -4.84% [at 57.5 µM], Cc1onc(C(=O)NCCc2noc(-c3ccncc3)n2)c1Cn1cc(Cl)cn1 -2.99%, NC1CC(c2cc(N3CCN(c4nnc(C(F)(F)F)s4)CC3)ncn2)C1 (stereo not drawn) 9.09%, CCNC(=O)[C@@H]1CCCN1C(C)(C)C(=O)NC 26.6% [at 77.1 µM], CCc1nccc(CN2CCCC(CC3CC3)(C(=O)O)C2)n1 (stereo not drawn) 11.6%, COCCN1CCCCCC(O)c2cc(C(=O)NCc3ccc(F)cc3)ccc21 (stereo not drawn) -7.68%, CC(C)n1cc(CN2CCC(CO)(Cc3ccccc3Cl)CC2)cn1 -1.51%, O=C(Cc1cccc(F)c1)NCc1nnc2cc(-c3nc(C4CC4)no3)ccn12 -0.331%, O=C(NC[C@H]1OC[C@@H](N(Cc2cnc[nH]2)Cc2cnc[nH]2)[C@@H]1O)C1CCCC1 113% [at 57.5 µM], COc1ccccc1-n1cc(C(=O)N[C@H](c2cnn(C)c2)C2CC(O)C2)cn1 (stereo partly drawn) 2.8%, Cc1nc(C(C)C)sc1C(=O)N1C[C@@H](C)[C@](O)(C2CCC2)C1 0.164%, COc1ccc(N2CC(COc3ccccc3)Oc3nc(C)ccc3C2=O)cc1 (stereo not drawn) -1.07% [at 16.1 µM], COc1ccc(-c2cccc(C(=O)NC3CCOCC3)c2)nn1 15.2% [at 57.5 µM], CN(C)[C@@H]1C[C@@H](CO)N(C(=O)c2csc3nc(-c4ccccc4Cl)cn23)C1 14.8%, COCCN1CCC(N2CCN(C(=O)c3ccsc3)CC2)C1=O (stereo not drawn) 17.5%, O=C(c1ccc(F)cc1)N1CCCCCC1c1nnc(-c2ccccc2)o1 (stereo not drawn) 0.811%, CCc1ccc(N2CC(c3noc(-c4sccc4C)n3)CC2=O)cc1 (stereo not drawn) -0.277%, O=C(OCc1ccccc1)N1CCOCC12CCN(Cc1c[nH]c3ccccc13)CC2 1.9% [at 57.5 µM], Cc1cccc(CN2CCCC(C(=O)Nc3cccc(-n4cccn4)c3)C2)n1 (stereo not drawn) 0.861%, COc1ccc(CCc2nc3nccc(-c4ccncc4)n3n2)cc1 7.82%, CCNC(=O)O[C@H]1COCCN(c2nc3ccccc3o2)C1 0.369% [at 57.5 µM], COc1ccc(S(=O)(=O)NC[C@H]2Cn3c(-c4ccc(Cl)cc4)cnc3CO2)cc1 7.08% [at 57.5 µM], O=C(CCn1cncn1)N1CCC2(CCC(=O)N(CCc3ccncc3)C2)CC1 1.56%, CC(=O)N1CCC(C(=O)N2CCCC(c3nc4ncccc4[nH]3)C2)CC1 (stereo not drawn) 1.14%, O=C(CCc1c[nH]c2ccccc12)NC1CCN(c2ccc(=O)[nH]n2)CC1 12.2%, O=C1CC(c2noc(Cc3ccc(F)cc3)n2)CN1c1ccc(F)cc1 (stereo not drawn) -1.31%, COc1ccc(CNc2cc3c(cn2)CN(C)CCN3)cc1OC 26.7% [at 57.5 µM], COCCN1Cc2nc(NCc3ccccc3)ccc2OCC1=O 24.4% [at 57.5 µM], COc1ccc(CC(=O)N2Cc3ccccc3CC23CCCN(C(=O)CN)C3)cc1 (stereo not drawn) -8.97%, COC[C@@H]1CN(c2ncccn2)C[C@H]1C(=O)NCc1ccccc1OC 0.757%, Cc1c(CC(=O)N(C)C(C)C)c2c(n1Cc1ccccc1F)CCCC2=O 67%, COc1ccc(-c2nc(C3CC(=O)N(c4ccc(C)cc4)C3)no2)cn1 (stereo not drawn) -0.208%, O=C(CC1=CCCCC1)N1CC(F)(F)C[C@H]1c1nc(C2CC2)no1 -9.55%
